According to patent US20230018888A1:
These are yes or no findings as the source states them, for the method shown. Some entries that bind do so weakly or less than the wild type.

The chains behind the UniProt entries cited, without tags or fusion partners. Residues count along the entry.
UniProt Q9UHX3, residues 24-823: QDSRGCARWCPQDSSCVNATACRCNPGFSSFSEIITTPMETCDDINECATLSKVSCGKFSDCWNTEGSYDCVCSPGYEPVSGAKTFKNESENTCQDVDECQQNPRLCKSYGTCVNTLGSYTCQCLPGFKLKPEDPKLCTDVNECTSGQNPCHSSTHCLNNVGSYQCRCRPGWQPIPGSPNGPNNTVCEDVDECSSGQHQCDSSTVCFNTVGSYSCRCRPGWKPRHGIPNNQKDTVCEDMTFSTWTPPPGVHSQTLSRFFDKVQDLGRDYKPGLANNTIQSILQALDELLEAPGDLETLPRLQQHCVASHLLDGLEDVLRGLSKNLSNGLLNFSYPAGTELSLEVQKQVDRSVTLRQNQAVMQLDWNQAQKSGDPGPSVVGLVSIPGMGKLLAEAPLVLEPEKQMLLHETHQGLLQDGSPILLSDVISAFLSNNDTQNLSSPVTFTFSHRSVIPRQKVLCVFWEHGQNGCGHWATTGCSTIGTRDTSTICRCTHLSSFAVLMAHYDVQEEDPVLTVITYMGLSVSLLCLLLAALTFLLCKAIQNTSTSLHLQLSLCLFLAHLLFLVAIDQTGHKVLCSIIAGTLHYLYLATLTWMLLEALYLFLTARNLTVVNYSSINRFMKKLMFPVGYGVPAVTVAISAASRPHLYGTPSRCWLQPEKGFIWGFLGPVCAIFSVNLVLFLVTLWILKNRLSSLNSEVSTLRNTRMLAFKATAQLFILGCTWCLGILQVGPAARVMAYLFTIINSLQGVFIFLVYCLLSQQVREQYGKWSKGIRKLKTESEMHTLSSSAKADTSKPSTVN

Each binder was assayed against Adhesion G Protein-coupled Receptor E2 (ADGRE2), overexpressed on murine lymphoma EL4 cells (human) (UniProt Q9UHX3) (assay: flow cytometry on EL4 cells overexpressing ADGRE2).

binding	Binder
binds	anti-ADGRE2 scFv N (scFv) scFv: QVQLQQSGAEVKKPGASVKLSCKASGYTFTNYWMQWVRQAPGQGLEWIGAVYPGDGDTRYTQKFQGRATLTADTSTSTVYMEVSSLRSEDTAVYYCARGFTAYGMDYWGQGTTVTVSSGGGGSGGGGSGGGGSEIVLTQSPATMSASPGERVTMSCSASSSVSYMHWYQQKSGLSPKRWIYDTSKLASGVPDRFSGSGSGTDYTFTISRMEPEDFATYYCQQWSSNPLTFGGGTKLEIK
binds	anti-ADGRE2 scFv B (scFv) scFv: QVQLQQSGAEVKKPGASVKLSCKASGYTFTNYWMQWIRQAPGQGLEWIGAVYPGDGDTRYTQKFQGRATLTADTSISTAYMEVSRLRSDDTAVYYCARGFTAYGMDYWGQGTTVTVSSGGGGSGGGGSGGGGSEIVLTQSPATMSASPGERVTMSCSASSSVSYMHWYQQKSGLSPKRWIYDTSKLASGVPDRFSGSGSGTDYTFTISRMEPEDFATYYCQQWSSNPLTFGGGTKLEIK
binds	anti-ADGRE2 scFv A (scFv) scFv: QVQLQQSGAEVKKPGASVKVSCKASGYTFTNYWMQWVRQAPGQGLEWMGAVYPGDGDTRHTQKFKGRVTMTRDTSTSTVYMELSSLRSEDTAVYYCARGFTAYGMDYWGQGTLVTVSSASTGGGGSGGGGSGGGGSEIVLTQSPATLSLSPGERATLSCSASSSVSYMHWYQQKPGLAPRLLIYDTSKLASGIPDRFSGSGSGTDFTLTISRLEPEDFAVYYCQQWSSNPLTFGQGTKVEIK
binds	anti-ADGRE2 scFv K (scFv) scFv: QVQLQQSGAEVAKPGASVKLSCKASGYTFTNYWMQWIKQAPGQGLEWIGAVYPGDGDTRHTQKFKGKATLTADKSTSTAYMEVSSLRSEDTAVYYCARGFTAYGMDYWGQGTTVTVSSGGGGSGGGGSGGGGSEIVLTQSPATMSASPGERVTMSCSASSSVSYMHWYQQKSGQSPKRWIYDTSKLASGVPARFSGSGSGTDYTFTISSMEPEDFATYYCQQWSSNPLTFGGGTKLEIK
